System: B16B15b mouse melanoma
Test: In vivo panning of phage libraries against a melanoma tumor
Parameters: species or system nude mice
Conditions: 89 cloned phage recovered from the B16B15b tumors, three rounds of panning

WGTGLC was tested. Which “share of the clones sequenced” value did it give?
Its value is 25%.

Source: patent EP0927045B1, “TUMOR HOMING MOLECULES, […] THEREFROM, AND METHODS OF USING SAME” (The Burnham Institute, priority 1996, dated 1998)
